Source: ChEMBL document CHEMBL3988442, “University of Dundee, Small-Polar-MMV Screening Library” (2021).

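Viability assay of Plasmodium falciparum sporozoites; the read-out is not stated. The concentration is filed as 10 mM, unlikely as a test dose, so the dose is not known. The record gives no direction; compounds that gave an IC50 in retests scored well above the rest, so higher reads as lower viability. Strong results were mostly tested again. Size under these conditions: about 34,000 compounds, about 280 of them at 50% or above in at least one test.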

The filed quantity is “Percent Effect” (%).
The record does not define 0% and 100%; most values in the screen are far below 50% and negative numbers occur (in some assays of this library far below -100).
The compounds are a random part of those screened.
Two or more numbers in one place are separate tests of the same structure; such repeats can differ widely.

SMILES	Percent Effect
Cc1ccc(OC[C@@H]2CNC[C@H](C(=O)NCC3CCCO3)C2)cn1 (stereo not given in full)	-5.562
Cc1ncsc1C(=O)N(Cc1ccccc1)C1CC1	2.051
O=C(CCc1ccc2c(c1)OCO2)N1CCCC(n2cccn2)C1 (stereo not given)	-3.407 and -9.243 and -9.365
COc1ccc(C2CN(c3nc(C)cc(C)n3)CCN2C(C)=O)cc1 (stereo not given)	-0.19
Cc1cc(CN2CCc3nn(C(C)C)c(=O)cc3C2)no1	-6.313
CN1CCCN(C(=O)NCCNc2ncccn2)CC1	15.07
O=C(O)C(F)(F)F.[H][C@]12CCN(C(=O)c3ccc4[nH]ccc4c3)C[C@@]1([H])OCCN(CC)C2	-2.981
O=C(O)C(F)(F)F.[H][C@@]12CN(CC3CC3)CCO[C@]1([H])CN(C(=O)C1CC(F)(F)C1)C2	5.565
CCN(CC)Cc1ccc(C(=O)N2CCCCC2Cn2cccn2)o1 (stereo not given)	-5.263
[H][C@@]12CCCO[C@]1([H])[C@H](NS(C)(=O)=O)CN(C(=O)c1ccoc1C)C2	-5.954
Cc1csc2c(N3CCC(NCCc4ccnn4C)CC3)ncnc12	5.702
COCCN1CCC(Cc2cncc(-c3ccc(C(=O)O)cc3)n2)C1 (stereo not given)	0.3555
CN1CCN(S(C)(=O)=O)c2cc(F)ccc21	13.93
O=C(O)C(F)(F)F.O=C(c1cccnc1)N1CCC2(CCN(C(=O)c3ccco3)CC2)C1	16.94
CN(C)CCCNC(=O)c1cnc(Cc2ccc(F)cc2)s1	-12.75
Cc1cccc(NC(=O)[C@@H]2CCCN2Cc2nc3ccccc3o2)n1	-38.73
O=C(O)C(F)(F)F.O=C(O)C(F)(F)F.[H][C@@]12CN(Cc3scnc3C)C[C@H](C(=O)N3CCCO3)[C@]1([H])CCO2	-4.958
CCC1CN(c2nnc(C)c(C)c2C#N)CCO1 (stereo not given)	5.276
CCn1cc(NC(=O)CN2CCC(Oc3ccc(F)cc3)CC2)c(C)n1.Cl	2.854
CNC(=O)c1cn[nH]c1C1(C)CCCN(CC2(O)CCCCC2)C1 (stereo not given)	1.28
CC(C)(CNC(=O)CCOc1cccc(F)c1)C(N)=O	3.298
Cc1nn(C)c(N(C)C)c1CNCc1ccccc1CN(C)C	-7.637
COCCOc1ccc(NC(=O)N2CCCC2c2ccsc2)cn1 (stereo not given)	-7.135
CC(C)C(=O)NC1COC2(CCN(Cc3cccnc3)CC2)C1.O=C(O)C(F)(F)F.O=C(O)C(F)(F)F (stereo not given)	18.99
O=C(N1CCOCC1)N1CCN(CC(O)c2ccc(F)cc2)CC1 (stereo not given)	11.56
CCOCC1CN(CC2CC2)Cc2cnn(C)c21 (stereo not given)	4.714
Cc1ccc(CN2CCC(n3cc(CN4CCC(O)CC4)nn3)CC2)s1	-3.122
CN(C)CCNC(=O)c1cc(-c2cnc(N3CCCC3)nc2)cn1C.O=C(O)C(F)(F)F	2.884
CCc1noc(-c2cccc(C(=O)O)c2)n1	3.158
O=c1[nH]c(CCN2CCCCC2Cn2cccn2)nc2ccccc12 (stereo not given)	9.081
O=C(O)C(F)(F)F.[H][C@@]12CCCO[C@]1([H])[C@H](NS(C)(=O)=O)CN2C(=O)c1cccnc1	-14.39
CNC(=O)C1CN(c2ncccn2)CCN1Cc1ccccc1 (stereo not given)	-0.4183
CS(=O)(=O)c1ccc(OCCNCc2ccc(F)cc2F)cc1	-26.29
Cc1cccc(S(=O)(=O)N2CSCC2C(=O)NC(C)(C)C)c1 (stereo not given)	-1.862
CCOC(CC)C(=O)NCCC(=O)N1CCN(c2ccccn2)CC1 (stereo not given)	-1.466
Cc1cnn(CC2CCCN2C(=O)c2c(C)noc2C(C)C)c1 (stereo not given)	2.244
CCOCCCn1c(NC(=O)c2cc(C)no2)nc2ccccc21	6.103
[H][C@]12CCN[C@@]1([H])CN(C(=O)CCc1ccccc1)C2	11.65
c1ccc2ncc(CC3CNCCOC3)cc2c1 (stereo not given)	1.356
CC(=O)N[C@@H]1CN(Cc2ccc(F)cc2F)C[C@H]1c1ccc(C)o1	-2.105
O=C(O)C(F)(F)F.[H][C@]12CCN(C(=O)c3ccncc3F)C[C@@]1([H])OCCN(c1ncccn1)C2	-10.05
CCS(=O)(=O)CC(=O)NC(c1ccc(F)cc1)C1CCCC1 (stereo not given)	-6.877
COc1c(C2CCCN2C(=O)c2cnc[nH]2)c(C)nn1C (stereo not given)	10.93
O=C1CN([C@@H]2CC[C@@H](NS(=O)(=O)c3ccccc3)[C@H]2O)CCN1	9.047
Cc1ccc(S(=O)(=O)N2CCc3nc(C4CCNCC4)ncc3C2)cc1.Cl	13.63
CN1CCCC(Cc2cc(N(C)C)ncn2)C1 (stereo not given)	2.671
CSCc1cc(F)ccc1CNC(=O)N1CCC[C@@H]1CO	-7.544
OC1(CN2CCCC2)CCCN(Cc2ccc(F)cc2Cl)C1 (stereo not given)	3.219

For reference, 5 entries once more:

SMILES,Percent Effect
CSCc1cc(F)ccc1CNC(=O)N1CCC[C@@H]1CO,-7.544
COc1ccc(C2CN(c3nc(C)cc(C)n3)CCN2C(C)=O)cc1 (stereo not given),-0.19
CN(C)CCNC(=O)c1cc(-c2cnc(N3CCCC3)nc2)cn1C.O=C(O)C(F)(F)F,2.884
Cc1cc(CN2CCc3nn(C(C)C)c(=O)cc3C2)no1,-6.313
CCn1cc(NC(=O)CN2CCC(Oc3ccc(F)cc3)CC2)c(C)n1.Cl,2.854